# The list shows a part of the results.
# B1: NKp30 (Homo sapiens), O14931 (protein)
# chain: LWVSQPPEIRTLEGSSAFLPCSFNASQGRLAIGSVTWFRDEVVPGKEVRNGTPEFRGRLAPLASSRFLHDHQAELHIRDVRGHDASIYVCRVEVLGLGVGTGNGTRLVVEKEHPQLG
# Columns and labels:
# Experiment in all cases: glycan array binding signal (z-score within array); higher = stronger binding
# Conditions in all cases: glycan notation: IUPAC condensed, linker removed
# [1] = molecular target: Fuc(b1-3)GlcNAc
# Summary of the method: (§1)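 The Consortium for Functional Glycomics database supplied 3228 glycan arrays, of which those lacking an available protein sequence were dropped. The binding signal, a within-array Z-score, was averaged across arrays of the same protein sequence and across linkers. Negative scores can be read as non-binding.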
# [2] = molecular target: Gal(a1-2)Gal
# Summary of the method: as §1
# [3] = molecular target: Gal(a1-3)Gal
# Summary of the method: as §1
# [4] = molecular target: Gal(a1-3)Gal(b1-3)Glc
# Summary of the method: as §1
# [5] = molecular target: Gal(a1-3)Gal(b1-3)GlcNAc
# Summary of the method: as §1
# [6] = molecular target: Gal(a1-3)Gal(b1-4)GlcNAc
# Summary of the method: as §1
# [7] = molecular target: Gal(a1-3)Gal(b1-4)[Fuc(a1-3)]GalNAc
# Summary of the method: as §1
# [8] = molecular target: Gal(a1-3)GlcNAc
# Summary of the method: as §1
# [9] = molecular target: Gal(a1-3)[Gal(a1-4)]Gal(b1-4)GlcNAc
# Summary of the method: as §1
# [10] = molecular target: Gal(a1-4)Gal(b1-4)Gal
# Summary of the method: as §1
# [11] = molecular target: Gal(a1-4)Gal(b1-4)GalNAc
# Summary of the method: as §1
# [12] = molecular target: Gal(a1-4)GlcNAc
# Summary of the method: as §1
# [13] = molecular target: Gal(a1-6)Glc
# Summary of the method: as §1
# [14] = molecular target: Gal(b1-2)Gal
# Summary of the method: as §1
# [15] = molecular target: Gal(b1-3)Gal
# Summary of the method: as §1
# [16] = molecular target: Gal(b1-3)GalNAc
# Summary of the method: as §1
# [17] = molecular target: Gal(b1-3)GalNAc(b1-3)Gal(a1-4)Gal(b1-4)Glc
# Summary of the method: as §1
# [18] = molecular target: Gal(b1-3)GalNAc(b1-3)Gal(b1-4)Glc
# Summary of the method: as §1
# [19] = molecular target: Gal(b1-3)GalNAc(b1-3)Gal(b1-4)GlcNAc
# Summary of the method: as §1
# [20] = molecular target: Gal(b1-3)GalNAc(b1-4)Gal(b1-4)Glc
# Summary of the method: as §1
# [21] = molecular target: Gal(b1-3)GalNAc(b1-4)[Neu5Ac(a2-3)]Gal(b1-4)Glc
# Summary of the method: as §1
# [22] = molecular target: Gal(b1-3)GlcNAc(b1-3)Gal(b1-3)GlcNAc
# Summary of the method: as §1
# [23] = molecular target: Gal(b1-3)[Fuc(a1-4)]GlcNAc
# Summary of the method: as §1
# [24] = molecular target: Gal(b1-3)[Fuc(a1-4)]GlcNAc(b1-3)Gal(b1-3)[Fuc(a1-4)]GlcNAc
# Summary of the method: as §1
# [25] = molecular target: Gal(b1-3)[Fuc(a1-4)]GlcNAc(b1-3)Gal(b1-4)GlcNAc
# Summary of the method: as §1
# [26] = molecular target: Gal(b1-3)[Fuc(a1-4)]GlcNAc(b1-3)Gal(b1-4)[Fuc(a1-3)]GlcNAc
# Summary of the method: as §1
# [27] = molecular target: Gal(b1-3)[GlcNAc(b1-6)]GalNAc
# Summary of the method: as §1
# [28] = molecular target: Gal(b1-3)[GlcNAc(b1-6)]GlcNAc
# Summary of the method: as §1
# [29] = molecular target: Gal(b1-3)[Neu5Ac(a2-6)]GalNAc
# Summary of the method: as §1
# [30] = molecular target: Gal(b1-3)[Neu5Ac(a2-6)]GlcNAc
# Summary of the method: as §1
# [31] = molecular target: Gal(b1-3)[Neu5Ac(a2-6)]GlcNAc(a1-4)Gal(b1-4)Glc
# Summary of the method: as §1
# [32] = molecular target: Gal(b1-3)[Neu5Ac(b2-6)]GlcNAc
# Summary of the method: as §1
# [33] = molecular target: Gal(b1-4)GalNAc(a1-3)[Fuc(a1-2)]Gal(b1-4)GlcNAc
# Summary of the method: as §1
# [34] = molecular target: Gal(b1-4)GalNAc(b1-3)[Fuc(a1-2)]Gal(b1-4)GlcNAc
# Summary of the method: as §1
# [35] = molecular target: Gal(b1-4)Glc
# Summary of the method: as §1
# [36] = molecular target: Gal(b1-4)Glc6S
# Summary of the method: as §1
# [37] = molecular target: Gal(b1-4)GlcNAc
# Summary of the method: as §1
# [38] = molecular target: Gal(b1-4)GlcNAc(b1-2)Man(a1-3)[Gal(b1-4)GlcNAc(b1-2)Man(a1-6)]Man(b1-4)GlcNAc(b1-4)GlcNAc
# Summary of the method: as §1
# [39] = molecular target: Gal(b1-4)GlcNAc(b1-3)Gal(b1-3)GlcNAc
# Summary of the method: as §1
# [40] = molecular target: Gal(b1-4)GlcNAc(b1-3)Gal(b1-4)Glc
# Summary of the method: as §1
# [41] = molecular target: Gal(b1-4)GlcNAc(b1-3)Gal(b1-4)GlcNAc
# Summary of the method: as §1
# [42] = molecular target: Gal(b1-4)GlcNAc(b1-3)Gal(b1-4)GlcNAc(b1-3)Gal(b1-4)GlcNAc
# Summary of the method: as §1
# [43] = molecular target: Gal(b1-4)GlcNAc(b1-3)Gal(b1-4)[Fuc(a1-3)]GlcNAc(b1-3)Gal(b1-4)[Fuc(a1-3)]GlcNAc
# Summary of the method: as §1
# [44] = molecular target: Gal(b1-4)GlcNAc(b1-3)GalNAc
# Summary of the method: as §1
# [45] = molecular target: Gal(b1-4)GlcNAc(b1-3)[Gal(b1-4)GlcNAc(b1-6)]GalNAc
# Summary of the method: as §1
binder,measurement,setting,value
B1,glycan array binding signal (z-score),[1],-0.447
same,glycan array binding signal (z-score),[2],-0.596
same,glycan array binding signal (z-score),[3],-0.485
same,glycan array binding signal (z-score),[4],0.252
same,glycan array binding signal (z-score),[5],-0.623
same,glycan array binding signal (z-score),[6],-0.883
same,glycan array binding signal (z-score),[7],-1.07
same,glycan array binding signal (z-score),[8],-0.793
same,glycan array binding signal (z-score),[9],-0.978
same,glycan array binding signal (z-score),[10],-0.681
same,glycan array binding signal (z-score),[11],-0.788
same,glycan array binding signal (z-score),[12],-0.176
same,glycan array binding signal (z-score),[13],-0.099
same,glycan array binding signal (z-score),[14],-0.007
same,glycan array binding signal (z-score),[15],-0.378
same,glycan array binding signal (z-score),[16],-0.24
same,glycan array binding signal (z-score),[17],-0.534
same,glycan array binding signal (z-score),[18],-0.43
same,glycan array binding signal (z-score),[19],-0.061
same,glycan array binding signal (z-score),[20],-0.723
same,glycan array binding signal (z-score),[21],-0.251
same,glycan array binding signal (z-score),[22],1.33
same,glycan array binding signal (z-score),[23],-0.678
same,glycan array binding signal (z-score),[24],0.191
same,glycan array binding signal (z-score),[25],-0.628
same,glycan array binding signal (z-score),[26],-0.456
same,glycan array binding signal (z-score),[27],0.027
same,glycan array binding signal (z-score),[28],-0.956
same,glycan array binding signal (z-score),[29],0.513
same,glycan array binding signal (z-score),[30],-0.427
same,glycan array binding signal (z-score),[31],-0.123
same,glycan array binding signal (z-score),[32],-0.988
same,glycan array binding signal (z-score),[33],-0.961
same,glycan array binding signal (z-score),[34],-1.16
same,glycan array binding signal (z-score),[35],-0.071
same,glycan array binding signal (z-score),[36],1.09
same,glycan array binding signal (z-score),[37],-0.275
same,glycan array binding signal (z-score),[38],-0.644
same,glycan array binding signal (z-score),[39],0.493
same,glycan array binding signal (z-score),[40],0.852
same,glycan array binding signal (z-score),[41],0.468
same,glycan array binding signal (z-score),[42],0.321
same,glycan array binding signal (z-score),[43],-0.177
same,glycan array binding signal (z-score),[44],-0.19
same,glycan array binding signal (z-score),[45],-0.011

# Laid out differently: results already given
binder | measurement | setting | value
B1 | glycan array binding signal (z-score) | [9] | -0.978
same | glycan array binding signal (z-score) | [10] | -0.681
same | glycan array binding signal (z-score) | [11] | -0.788
same | glycan array binding signal (z-score) | [12] | -0.176
same | glycan array binding signal (z-score) | [13] | -0.099
same | glycan array binding signal (z-score) | [14] | -0.007
same | glycan array binding signal (z-score) | [15] | -0.378
same | glycan array binding signal (z-score) | [16] | -0.24
same | glycan array binding signal (z-score) | [17] | -0.534
same | glycan array binding signal (z-score) | [18] | -0.43
same | glycan array binding signal (z-score) | [19] | -0.061
same | glycan array binding signal (z-score) | [20] | -0.723
same | glycan array binding signal (z-score) | [21] | -0.251

# From the supplement of paper PMC8728848
